Our source for the binding values is publication PMC8500230.

By UniProt entry, the sequences of proteins in these tests, tags left out. Where a name states a change or a piece, a line headed by the entry shows the natural chain unless it says otherwise.
UniProt F4J4R5: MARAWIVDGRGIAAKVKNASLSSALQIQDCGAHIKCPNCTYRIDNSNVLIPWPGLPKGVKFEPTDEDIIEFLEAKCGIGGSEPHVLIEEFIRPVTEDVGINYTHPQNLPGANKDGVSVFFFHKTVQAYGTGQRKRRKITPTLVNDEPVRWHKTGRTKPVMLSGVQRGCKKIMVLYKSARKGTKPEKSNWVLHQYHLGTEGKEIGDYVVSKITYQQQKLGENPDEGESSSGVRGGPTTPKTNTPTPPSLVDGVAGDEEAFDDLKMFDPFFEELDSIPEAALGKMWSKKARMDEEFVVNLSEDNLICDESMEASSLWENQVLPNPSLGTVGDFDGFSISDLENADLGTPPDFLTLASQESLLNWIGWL

Experiment [1] has as its target T1, RBR1-GFP (Arabidopsis thaliana) (UniProt Q9LKZ3).
T1 sequence: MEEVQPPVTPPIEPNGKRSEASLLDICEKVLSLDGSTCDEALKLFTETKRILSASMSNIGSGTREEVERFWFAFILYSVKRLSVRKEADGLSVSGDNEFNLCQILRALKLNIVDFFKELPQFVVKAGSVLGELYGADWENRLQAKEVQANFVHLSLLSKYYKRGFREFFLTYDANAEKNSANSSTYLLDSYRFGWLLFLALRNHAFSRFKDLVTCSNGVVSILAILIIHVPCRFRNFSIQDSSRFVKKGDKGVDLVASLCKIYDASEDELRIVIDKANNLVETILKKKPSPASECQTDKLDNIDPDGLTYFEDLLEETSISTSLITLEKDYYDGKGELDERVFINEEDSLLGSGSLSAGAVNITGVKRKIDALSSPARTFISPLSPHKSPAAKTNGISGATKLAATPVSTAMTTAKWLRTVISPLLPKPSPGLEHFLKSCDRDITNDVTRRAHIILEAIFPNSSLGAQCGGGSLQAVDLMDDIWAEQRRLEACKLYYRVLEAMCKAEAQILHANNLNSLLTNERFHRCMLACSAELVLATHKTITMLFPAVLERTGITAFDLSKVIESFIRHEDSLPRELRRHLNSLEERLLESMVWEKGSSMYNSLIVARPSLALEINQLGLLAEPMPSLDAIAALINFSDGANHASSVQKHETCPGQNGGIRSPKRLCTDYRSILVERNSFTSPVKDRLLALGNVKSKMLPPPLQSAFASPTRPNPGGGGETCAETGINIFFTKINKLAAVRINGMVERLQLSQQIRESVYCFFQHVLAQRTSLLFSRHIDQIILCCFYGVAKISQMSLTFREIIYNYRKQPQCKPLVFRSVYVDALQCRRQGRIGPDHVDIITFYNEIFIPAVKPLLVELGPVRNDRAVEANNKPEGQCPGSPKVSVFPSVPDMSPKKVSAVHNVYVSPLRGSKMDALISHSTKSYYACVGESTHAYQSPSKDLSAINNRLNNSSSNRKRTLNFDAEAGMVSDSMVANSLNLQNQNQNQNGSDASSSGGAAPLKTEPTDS
Kind of experiment: affinity purification with mass spectrometry; FP-IP: anti-GFP antibody on magnetic beads, total protein extracts (4 mg/IP) of Arabidopsis seedlings expressing the GFP- or CFP-tagged bait under its own promoter; GFP alone as control; standard conditions, various growth regimes (meta-analysis of 182 IPs), with or without 50 uM cisplatin for 24 h; label-free LC-MS/MS.

Experiment [2] concerns the target tagged NAC044 (TAP bait, tag end not told for this result) (Arabidopsis thaliana). In words: affinity purification with mass spectrometry; tandem affinity purification (GS^rhino tag) from Arabidopsis PSB-D cell suspension cultures expressing the tagged bait under the 35S promoter; 30 uM cisplatin added 16 h before harvest; 100 mg total protein extract; on-bead digest, LC-MS/MS; in ….

For experiment [3], the target named is tagged LIN52A (TAP bait, tag end not told for this result) (Arabidopsis thaliana). The experiment is described as above.
The target in experiment [4] is T2, RBR1-GFP (Arabidopsis thaliana), Q9LKZ3.
T2 chain: T1 sequence
Kind of experiment: affinity purification with mass spectrometry; FP-IP: anti-GFP antibody on magnetic beads, total protein extracts (4 mg/IP) of Arabidopsis seedlings expressing the GFP- or CFP-tagged bait under its own promoter; GFP alone as control; standard conditions, various growth regimes (meta-analysis of 182 IPs), with or without 50 uM cisplatin for 24 h; label-free LC-MS/MS. Conditions: remark: other sources report otherwise.

Experiment [5] deals with T3, N-terminally tagged RBR1 (TAP bait) (Arabidopsis thaliana), Q9LKZ3.
T3 chain: T1 sequence
In words: affinity purification with mass spectrometry; tandem affinity purification (GS^rhino tag) from Arabidopsis PSB-D cell suspension cultures expressing the tagged bait under the 35S promoter; 30 uM cisplatin added 16 h before harvest; 100 mg total protein extract; on-bead digest, LC-MS/MS; in …. Conditions: remark: other sources report otherwise.

Experiment [6] concerns the target N-terminally tagged LIN52A (TAP bait) (Arabidopsis thaliana). The experiment is described as above.
The target in experiment [7] is T4, C-terminally tagged TCX5 (TAP bait) (Arabidopsis thaliana) (UniProt Q9SZD1).
T4 sequence: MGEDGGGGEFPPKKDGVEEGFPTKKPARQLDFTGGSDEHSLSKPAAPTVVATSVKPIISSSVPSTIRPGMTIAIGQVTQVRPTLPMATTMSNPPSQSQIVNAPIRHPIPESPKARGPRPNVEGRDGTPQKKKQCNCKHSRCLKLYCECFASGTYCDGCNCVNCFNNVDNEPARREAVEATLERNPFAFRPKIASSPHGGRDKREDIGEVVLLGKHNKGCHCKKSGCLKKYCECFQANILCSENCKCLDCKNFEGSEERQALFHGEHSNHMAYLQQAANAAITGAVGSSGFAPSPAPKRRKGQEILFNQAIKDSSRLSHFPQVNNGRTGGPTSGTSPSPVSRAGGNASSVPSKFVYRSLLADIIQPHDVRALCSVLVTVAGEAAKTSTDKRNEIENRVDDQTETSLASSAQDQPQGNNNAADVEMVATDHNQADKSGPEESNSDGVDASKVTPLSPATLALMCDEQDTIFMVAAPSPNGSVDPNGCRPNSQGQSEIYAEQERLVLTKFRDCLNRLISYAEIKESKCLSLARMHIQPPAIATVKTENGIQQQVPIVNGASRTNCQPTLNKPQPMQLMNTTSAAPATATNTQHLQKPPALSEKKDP
The description is as above.

For experiment [8], the target named is T5, N-terminally tagged TCX5 (TAP bait) (Arabidopsis thaliana) (UniProt Q9SZD1).
T5 sequence: T4 sequence
The description is as above.

Experiment [9] has as its target C-terminally tagged NAC044 (TAP bait) (Arabidopsis thaliana) (UniProt F4J4R5). The description is as above.

These are yes or no findings as the source states them, for the method shown. In cells and extracts the contact can be indirect. A yes stands for co-enrichment or nearness to the bait. Other partners may have been found. For some of these results: Sequences can lack the tags named with a protein.

B1: MSI4 (protein, UniProt O22607 1-507)
chain: MESDEAAAVSPQATTPSGGTGASGPKKRGRKPKTKEDSQTPSSQQQSDVKMKESGKKTQQSPSVDEKYSQWKGLVPILYDWLANHNLVWPSLSCRWGPQLEQATYKNRQRLYLSEQTDGSVPNTLVIANCEVVKPRVAAAEHISQFNEEARSPFVKKYKTIIHPGEVNRIRELPQNSKIVATHTDSPDVLIWDVETQPNRHAVLGAANSRPDLILTGHQDNAEFALAMCPTEPFVLSGGKDKSVVLWSIQDHITTIGTDSKSSGSIIKQTGEGTDKNESPTVGPRGVYHGHEDTVEDVAFSPTSAQEFCSVGDDSCLILWDARTGTNPVTKVEKAHDADLHCVDWNPHDDNLILTGSADNTVRLFDRRKLTANGVGSPIYKFEGHKAAVLCVQWSPDKSSVFGSSAEDGLLNIWDYDRVSKKSDRAAKSPAGLFFQHAGHRDKVVDFHWNASDPWTIVSVSDDCETTGGGGTLQIWRMSDLIYRPEEEVVAELEKFKSHVMTCASKP
In the case of B1, in experiment [1], the binding result was “binds”.

B2: AT2G22360 (DJA6) (protein, UniProt Q9SJZ7 83-442)
chain: ADADYYSVLGVSKNATKAEIKSAYRKLARNYHPDVNKDPGAEEKFKEISNAYEVLSDDEKKSLYDRYGEAGLKGAAGFGNGDFSNPFDLFDSLFEGFGGGMGRGSRSRAVDGQDEYYTLILNFKEAVFGMEKEIEISRLESCGTCEGSGAKPGTKPTKCTTCGGQGQVVSAARTPLGVFQQVMTCSSCNGTGEISTPCGTCSGDGRVRKTKRISLKVPAGVDSGSRLRVRGEGNAGKRGGSPGDLFVVIEVIPDPILKRDDTNILYTCKISYIDAILGTTLKVPTVDGTVDLKVPAGTQPSTTLVMAKKGVPVLNKSNMRGDQLVRVQVEIPKRLSKEEKKLIEELADMSKNKTANSTSR
Take B2: the binding entry in [2] and in experiment [3] was “binds” in each case.

B3: DPB, Q9FNY2 1-385 (protein)
chain: MTTTGSNSNHNHHESNNNNNNPSTRSWGTAVSGQSVSTSGSMGSPSSRSEQTITVVTSTSDTTFQRLNNLDIQGDDAGSQGASGVKKKKRGQRAAGPDKTGRGLRQFSMKVCEKVESKGRTTYNEVADELVAEFALPNNDGTSPDQQQYDEKNIRRRVYDALNVLMAMDIISKDKKEIQWRGLPRTSLSDIEELKNERLSLRNRIEKKTAYSQELEEQYVGLQNLIQRNEHLYSSGNAPSGGVALPFILVQTRPHATVEVEISEDMQLVHFDFNSTPFELHDDNFVLKTMKFCDQPPQQPNGRNNSQLVCHNFTPENPNKGPSTGPTPQLDMYETHLQSQQHQQHSQLQIIPMPETNNVTSSADTAPVKSPSLPGIMNSSMKPEN
For B3, the binding entry in experiment [4] and in [5] was “binds” throughout.

B4: TCX6/LIN54B (protein, UniProt Q9SL70 1-571)
chain: MGEGEEGDKFPPKTDEVTQESMKSARQLDFTGGSSDVEHSHSNQASSMAAASIPSPIVTVTRPIITSQAPPTVATPIPPPPQSQGIILHVPIRHPRPESPNSMPRPAGETRDGTPQKKKQCNCKHSRCLKLYCECFASGTYCDGCNCVNCFNNVENEPARRQAVESTLERNPNAFRPKIAASPHGGRDNREEVGDVVMLARHNKGCHCKKSGCLKKYCECFQANILCSENCKCLDCKNFEGSEVRQSLFHGEHSHNLAYLQHANAAITGAIGSSGFASAPPPKRRKGQEIFFNQGTKDSSTHRLGQANNGRTTSSQTGSRAGGNASLGPSKVVYKSLLANIIKPMDVKALCSVLVAVAGEAAKTLTEKRLANQKETSVASSVQDQGHVNNKAEKSGLEDSNADGSKGRSLSPETLALMCDERDTMLMVAASPNCSVEPTSQLPNGQDQVYAEQEKVVLTKFRDCLNRIISCGEVKESNCSMSRMDLDTPVQTTVRIDPVVQQAPVANGVSQTAKQPSQLNTTTPNTSSQTANGVSQTAKQPSQLTTTTTTPNTSSQTHLHKTPALSEKKDL
Turning to B4, the binding result in experiment [6] is “binds”.

B5: MYB3R1 (protein, UniProt Q9S7G7 1-776)
chain: MKREMKAPTTPLESLQGDLKGKQGRTSGPARRSTKGQWTPEEDEVLCKAVERFQGKNWKKIAECFKDRTDVQCLHRWQKVLNPELVKGPWSKEEDNTIIDLVEKYGPKKWSTISQHLPGRIGKQCRERWHNHLNPGINKNAWTQEEELTLIRAHQIYGNKWAELMKFLPGRSDNSIKNHWNSSVKKKLDSYYASGLLDQCQSSPLIALQNKSIASSSSWMHSNGDEGSSRPGVDAEESECSQASTVFSQSTNDLQDEVQRGNEEYYMPEFHSGTEQQISNAASHAEPYYPSFKDVKIVVPEISCETECSKKFQNLNCSHELRTTTATEDQLPGVSNDAKQDRGLELLTHNMDNGGKNQALQQDFQSSVRLSDQPFLSNSDTDPEAQTLITDEECCRVLFPDNMKDSSTSSGEQGRNMVDPQNGKGSLCSQAAETHAHETGKVPALPWHPSSSEGLAGHNCVPLLDSDLKDSLLPRNDSNAPIQGCRLFGATELECKTDTNDGFIDTYGHVTSHGNDDNGGFPEQQGLSYIPKDSLKLVPLNSFSSPSRVNKIYFPIDDKPAEKDKGALCYEPPRFPSADIPFFSCDLVPSNSDLRQEYSPFGIRQLMISSMNCTTPLRLWDSPCHDRSPDVMLNDTAKSFSGAPSILKKRHRDLLSPVLDRRKDKKLKRAATSSLANDFSRLDVMLDEGDDCMTSRPSESPEDKNICASPSIARDNRNCASARLYQEMIPIDEEPKETLESGGVTSMQNENGCNDGGASAKNVSPSLSLHIIWYQL
For the molecule B5, the binding entry in [7], in experiment [8] and in experiment [6] was “binds” throughout.

B6: SOG1 (protein, UniProt Q6NQK2 1-449)
chain: MAGRSWLIDSNRIATKIMSASASSDPRQVVWKSNPSRHCPKCQHVIDNSDVVDDWPGLPRGVKFDPSDPEIIWHLLAKSGLSGLSSHPFIDEFIPTVNQDDGICYTHPKNLPGVKSDGTVSHFFHKAIKAYSTGTRKRRKIHDDDFGDVRWHKTGRTKPVVLDGVQRGCKKIMVLYGGKAVKTNWVMHQYHLGIEEDEKEGDYVVSKIFYQQPQQLVVKRGDKAEQEVSEDIFAAVTPTADPVTPKLATPEPRNAVRICSDSHIASDYVTPSDYVSAHEVSLAETSEVMCMEDEVQSIQPNHERPSSGPELEHGLENGAKEMLDDKEEQEKDRDNENQGEEDPTWFDSGSQFILNSQQLVEALSLCDDLLGSQDREENTNSGSLKDKQPCIADYAHLGPEDFKRDLEECQKIVLDPSNIELDTPPEFRLSQLEFGSQDSFLAWGTGKTD
With B6, the binding entry in experiment [9] was “binds”.
